Test results as given in PMC9404835.

Protein sequences, listed by entry. Tags and fused reporters are not part of them. Lines headed by an entry give the natural chain unless they say otherwise; changes in a name come on top.
UniProt P32929: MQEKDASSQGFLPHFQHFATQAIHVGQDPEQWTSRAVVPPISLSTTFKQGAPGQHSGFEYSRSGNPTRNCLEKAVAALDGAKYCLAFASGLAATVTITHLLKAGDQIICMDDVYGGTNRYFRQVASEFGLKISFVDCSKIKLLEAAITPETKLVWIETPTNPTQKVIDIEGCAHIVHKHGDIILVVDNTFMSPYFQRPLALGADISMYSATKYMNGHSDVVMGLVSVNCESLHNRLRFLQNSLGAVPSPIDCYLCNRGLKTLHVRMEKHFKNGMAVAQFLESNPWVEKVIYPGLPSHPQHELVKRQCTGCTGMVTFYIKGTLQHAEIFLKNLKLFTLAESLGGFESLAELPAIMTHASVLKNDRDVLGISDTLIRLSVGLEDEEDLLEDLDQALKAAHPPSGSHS
UniProt P42858: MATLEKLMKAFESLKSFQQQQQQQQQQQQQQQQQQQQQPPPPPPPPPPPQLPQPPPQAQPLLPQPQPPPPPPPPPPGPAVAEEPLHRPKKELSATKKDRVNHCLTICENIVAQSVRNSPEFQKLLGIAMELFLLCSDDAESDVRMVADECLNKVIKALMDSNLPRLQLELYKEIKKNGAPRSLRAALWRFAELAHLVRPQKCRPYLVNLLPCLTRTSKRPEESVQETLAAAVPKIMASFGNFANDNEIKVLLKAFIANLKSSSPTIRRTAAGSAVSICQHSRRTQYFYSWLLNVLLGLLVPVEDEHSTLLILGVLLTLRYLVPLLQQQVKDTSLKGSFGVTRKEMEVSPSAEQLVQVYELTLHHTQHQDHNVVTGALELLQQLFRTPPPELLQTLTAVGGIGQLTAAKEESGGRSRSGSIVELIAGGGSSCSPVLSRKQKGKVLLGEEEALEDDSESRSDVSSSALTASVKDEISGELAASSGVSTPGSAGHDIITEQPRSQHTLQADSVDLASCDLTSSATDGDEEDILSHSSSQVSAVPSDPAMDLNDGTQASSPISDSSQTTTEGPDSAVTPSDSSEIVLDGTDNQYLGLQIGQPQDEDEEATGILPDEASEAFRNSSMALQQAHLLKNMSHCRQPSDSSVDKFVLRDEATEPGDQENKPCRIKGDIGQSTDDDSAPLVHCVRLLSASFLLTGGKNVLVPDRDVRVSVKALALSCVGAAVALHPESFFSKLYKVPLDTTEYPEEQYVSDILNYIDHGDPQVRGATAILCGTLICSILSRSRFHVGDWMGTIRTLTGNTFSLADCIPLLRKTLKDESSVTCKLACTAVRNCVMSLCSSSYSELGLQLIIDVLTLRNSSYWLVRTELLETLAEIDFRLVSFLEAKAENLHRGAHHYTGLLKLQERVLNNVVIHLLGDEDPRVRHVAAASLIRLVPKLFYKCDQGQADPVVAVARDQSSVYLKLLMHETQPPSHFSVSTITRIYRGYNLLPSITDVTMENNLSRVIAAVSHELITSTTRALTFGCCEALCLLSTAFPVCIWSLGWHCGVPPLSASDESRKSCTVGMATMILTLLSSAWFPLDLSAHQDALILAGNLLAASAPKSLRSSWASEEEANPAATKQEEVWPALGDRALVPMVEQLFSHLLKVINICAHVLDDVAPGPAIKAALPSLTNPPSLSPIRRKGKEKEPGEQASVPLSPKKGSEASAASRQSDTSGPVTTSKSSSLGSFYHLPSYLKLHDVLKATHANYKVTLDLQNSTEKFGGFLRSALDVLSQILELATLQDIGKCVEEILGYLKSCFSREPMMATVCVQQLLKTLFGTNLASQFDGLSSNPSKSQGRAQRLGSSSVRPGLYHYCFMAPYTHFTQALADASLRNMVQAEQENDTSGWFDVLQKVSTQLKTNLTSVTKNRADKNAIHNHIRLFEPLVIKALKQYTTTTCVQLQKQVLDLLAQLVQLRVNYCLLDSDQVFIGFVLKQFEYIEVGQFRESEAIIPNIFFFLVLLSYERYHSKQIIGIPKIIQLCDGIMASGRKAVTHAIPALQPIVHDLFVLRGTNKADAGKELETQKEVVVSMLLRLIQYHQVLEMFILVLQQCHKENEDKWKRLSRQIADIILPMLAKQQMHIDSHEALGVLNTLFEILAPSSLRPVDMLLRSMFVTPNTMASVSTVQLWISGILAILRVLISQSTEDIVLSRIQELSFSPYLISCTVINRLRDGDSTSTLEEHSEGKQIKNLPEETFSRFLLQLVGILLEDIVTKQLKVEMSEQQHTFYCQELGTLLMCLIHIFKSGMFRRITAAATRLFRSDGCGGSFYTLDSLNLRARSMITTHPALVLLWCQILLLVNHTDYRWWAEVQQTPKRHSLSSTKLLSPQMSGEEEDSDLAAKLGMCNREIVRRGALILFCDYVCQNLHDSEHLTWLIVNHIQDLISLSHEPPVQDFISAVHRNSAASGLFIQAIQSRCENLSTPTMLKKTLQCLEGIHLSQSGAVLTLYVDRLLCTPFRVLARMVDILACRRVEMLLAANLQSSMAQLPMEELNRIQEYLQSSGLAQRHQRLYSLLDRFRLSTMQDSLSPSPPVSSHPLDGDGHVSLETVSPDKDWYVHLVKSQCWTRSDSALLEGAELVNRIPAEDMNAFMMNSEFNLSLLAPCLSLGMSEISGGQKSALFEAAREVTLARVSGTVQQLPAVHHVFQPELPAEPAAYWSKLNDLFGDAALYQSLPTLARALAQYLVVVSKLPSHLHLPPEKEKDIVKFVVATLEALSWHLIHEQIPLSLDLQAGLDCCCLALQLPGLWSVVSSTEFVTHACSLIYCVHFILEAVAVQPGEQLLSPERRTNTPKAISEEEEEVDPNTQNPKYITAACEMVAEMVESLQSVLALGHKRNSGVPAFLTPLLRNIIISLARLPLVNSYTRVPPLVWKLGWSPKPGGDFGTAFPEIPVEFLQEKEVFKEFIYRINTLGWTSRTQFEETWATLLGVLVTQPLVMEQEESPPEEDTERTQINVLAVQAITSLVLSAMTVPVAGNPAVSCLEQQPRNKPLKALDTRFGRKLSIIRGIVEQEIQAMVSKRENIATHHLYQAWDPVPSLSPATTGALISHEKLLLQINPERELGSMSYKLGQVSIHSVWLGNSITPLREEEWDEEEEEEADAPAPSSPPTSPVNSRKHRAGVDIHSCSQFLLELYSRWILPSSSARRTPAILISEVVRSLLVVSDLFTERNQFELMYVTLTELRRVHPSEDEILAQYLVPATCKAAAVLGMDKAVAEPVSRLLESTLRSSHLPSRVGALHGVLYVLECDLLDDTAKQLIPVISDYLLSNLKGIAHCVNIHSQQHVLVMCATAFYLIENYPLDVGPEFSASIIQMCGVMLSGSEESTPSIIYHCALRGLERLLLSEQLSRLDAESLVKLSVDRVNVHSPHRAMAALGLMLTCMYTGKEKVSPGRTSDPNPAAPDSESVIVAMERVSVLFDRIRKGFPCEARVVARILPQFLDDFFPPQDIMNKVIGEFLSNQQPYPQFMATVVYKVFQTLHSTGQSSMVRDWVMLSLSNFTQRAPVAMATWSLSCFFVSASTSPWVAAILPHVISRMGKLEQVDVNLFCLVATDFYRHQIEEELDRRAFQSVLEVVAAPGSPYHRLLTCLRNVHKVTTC

Biological target: myc-tagged cystathionine γ-lyase (CSE) (UniProt P32929)
Assay: co-IP; HEK293 cells co-transfected with myc-CSE and HD17 or HD75 for 24 h; immunoprecipitation with anti-myc antibody (legend; the methods name anti-CSE antibodies), Protein A/G agarose, 4 °C; 50 mM Tris-HCl pH 7.4, 150 mM NaCl, 1% Triton X-100, 1 mM EDTA, 10% glycerol; Western blot

binding: binds
Substance: full-length mutant huntingtin (HD75) (from UniProt P42858)

These are yes or no findings as the source states them, for the method shown. Binding seen in cells or lysates may run through a third protein. Binding can be weak; no strength is given.
